Results are given in words; binding and its absence hold for the method and conditions named. For some of these results: A result given as binding can be weak or reduced; the word gives no strength. Where a sequence is shown, tags or fusion partners need not be part of it.
Assays:
Test in all cases: two-hybrid; yeast Y2HGold, pGBKT7 bait and pGADT7 prey, growth on SD-Leu-Trp-His-Ade with X-α-Gal
[1] = molecular target: T1, BD-PAP9 (Arabidopsis thaliana) (UniProt Q9LU64)
T1 sequence: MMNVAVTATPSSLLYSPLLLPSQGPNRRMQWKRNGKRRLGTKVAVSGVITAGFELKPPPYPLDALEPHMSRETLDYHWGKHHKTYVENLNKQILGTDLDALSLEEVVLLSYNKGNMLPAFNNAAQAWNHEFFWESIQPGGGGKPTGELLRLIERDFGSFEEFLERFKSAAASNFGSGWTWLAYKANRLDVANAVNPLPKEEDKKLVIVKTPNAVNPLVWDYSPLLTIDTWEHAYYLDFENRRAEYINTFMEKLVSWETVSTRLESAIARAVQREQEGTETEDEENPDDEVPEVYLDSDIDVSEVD

[2] = molecular target: T2, RpoA yeast two-hybrid fusion (Arabidopsis thaliana) (UniProt P56762)
T2 sequence: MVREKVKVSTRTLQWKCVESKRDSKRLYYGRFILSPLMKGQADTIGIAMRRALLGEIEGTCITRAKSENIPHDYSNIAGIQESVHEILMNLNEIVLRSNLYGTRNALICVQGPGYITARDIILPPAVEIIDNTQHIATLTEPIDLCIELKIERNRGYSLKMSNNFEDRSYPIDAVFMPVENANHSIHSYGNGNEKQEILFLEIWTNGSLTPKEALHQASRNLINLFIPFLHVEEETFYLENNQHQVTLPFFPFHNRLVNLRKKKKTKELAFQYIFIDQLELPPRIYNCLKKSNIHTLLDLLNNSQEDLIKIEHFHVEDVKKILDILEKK

[3] = molecular target: T3, RpoC1 yeast two-hybrid fusion (Arabidopsis thaliana) (UniProt P56763)
T3 sequence: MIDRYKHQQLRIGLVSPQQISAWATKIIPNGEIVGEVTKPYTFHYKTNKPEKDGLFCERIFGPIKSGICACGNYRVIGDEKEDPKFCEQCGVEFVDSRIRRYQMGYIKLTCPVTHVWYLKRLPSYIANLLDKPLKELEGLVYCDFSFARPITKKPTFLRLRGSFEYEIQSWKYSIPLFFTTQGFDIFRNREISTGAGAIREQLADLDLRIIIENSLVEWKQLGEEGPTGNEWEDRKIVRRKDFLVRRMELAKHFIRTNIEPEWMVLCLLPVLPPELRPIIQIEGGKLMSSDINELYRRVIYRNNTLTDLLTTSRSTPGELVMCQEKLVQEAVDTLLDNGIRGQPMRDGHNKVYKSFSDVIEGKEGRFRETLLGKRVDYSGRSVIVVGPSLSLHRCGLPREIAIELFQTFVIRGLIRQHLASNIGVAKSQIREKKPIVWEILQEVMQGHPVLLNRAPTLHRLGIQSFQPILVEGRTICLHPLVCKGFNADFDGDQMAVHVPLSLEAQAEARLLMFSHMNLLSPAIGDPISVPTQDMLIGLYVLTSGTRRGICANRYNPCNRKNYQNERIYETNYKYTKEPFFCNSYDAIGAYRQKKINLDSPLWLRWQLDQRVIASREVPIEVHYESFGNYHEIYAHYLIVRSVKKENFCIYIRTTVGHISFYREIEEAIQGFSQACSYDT

[4] = molecular target: T4, RpoC2 yeast two-hybrid fusion (Arabidopsis thaliana) (UniProt P56764)
T4 sequence: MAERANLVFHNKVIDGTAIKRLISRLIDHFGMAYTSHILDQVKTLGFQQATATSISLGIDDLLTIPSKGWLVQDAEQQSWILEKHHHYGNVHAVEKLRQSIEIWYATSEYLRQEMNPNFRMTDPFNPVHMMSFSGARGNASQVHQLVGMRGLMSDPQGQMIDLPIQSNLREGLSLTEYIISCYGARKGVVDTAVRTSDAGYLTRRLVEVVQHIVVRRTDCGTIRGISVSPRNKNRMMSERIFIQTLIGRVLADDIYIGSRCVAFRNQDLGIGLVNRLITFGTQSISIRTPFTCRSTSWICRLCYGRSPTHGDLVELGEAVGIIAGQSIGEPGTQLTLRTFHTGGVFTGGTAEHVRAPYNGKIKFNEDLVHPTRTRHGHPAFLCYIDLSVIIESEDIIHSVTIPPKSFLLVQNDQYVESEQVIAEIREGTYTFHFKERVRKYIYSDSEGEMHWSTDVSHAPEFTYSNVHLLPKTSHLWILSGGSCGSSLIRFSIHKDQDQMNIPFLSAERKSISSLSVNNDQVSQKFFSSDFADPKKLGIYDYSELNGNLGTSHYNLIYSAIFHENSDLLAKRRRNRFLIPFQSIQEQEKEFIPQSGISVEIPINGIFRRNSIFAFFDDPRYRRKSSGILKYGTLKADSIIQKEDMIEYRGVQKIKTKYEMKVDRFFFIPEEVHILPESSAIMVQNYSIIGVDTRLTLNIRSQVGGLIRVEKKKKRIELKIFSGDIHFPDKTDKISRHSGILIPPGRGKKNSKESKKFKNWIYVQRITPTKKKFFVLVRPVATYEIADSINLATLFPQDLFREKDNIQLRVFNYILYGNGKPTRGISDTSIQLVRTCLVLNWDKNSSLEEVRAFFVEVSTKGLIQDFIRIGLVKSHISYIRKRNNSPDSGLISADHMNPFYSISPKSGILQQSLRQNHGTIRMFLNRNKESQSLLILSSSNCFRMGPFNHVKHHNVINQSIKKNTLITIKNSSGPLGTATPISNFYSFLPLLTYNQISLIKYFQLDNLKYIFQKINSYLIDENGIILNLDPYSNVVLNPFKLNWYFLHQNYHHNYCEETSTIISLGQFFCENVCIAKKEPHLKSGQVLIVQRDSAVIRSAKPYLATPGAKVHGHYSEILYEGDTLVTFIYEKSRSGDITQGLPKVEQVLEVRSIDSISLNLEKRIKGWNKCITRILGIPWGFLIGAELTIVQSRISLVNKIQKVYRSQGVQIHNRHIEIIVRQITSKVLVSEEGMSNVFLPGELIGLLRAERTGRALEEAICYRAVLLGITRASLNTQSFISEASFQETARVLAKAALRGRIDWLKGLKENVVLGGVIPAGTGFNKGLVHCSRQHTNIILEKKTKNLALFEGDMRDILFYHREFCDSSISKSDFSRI

binding [1]: binds | binding [2]: no binding | binding [3]: no binding | binding [4]: no binding
Substance: AD-AtNusG (Arabidopsis thaliana)
